Publication PMC8542044
Results are given in words; binding and its absence hold for the method and conditions named. In cells and extracts the contact can be indirect. Some entries that bind do so weakly or less than the wild type. For some assays here: Where a sequence is shown, tags or fusion partners need not be part of it.

By UniProt entry, the sequences of proteins in these tests, tags left out.
UniProt Q13263: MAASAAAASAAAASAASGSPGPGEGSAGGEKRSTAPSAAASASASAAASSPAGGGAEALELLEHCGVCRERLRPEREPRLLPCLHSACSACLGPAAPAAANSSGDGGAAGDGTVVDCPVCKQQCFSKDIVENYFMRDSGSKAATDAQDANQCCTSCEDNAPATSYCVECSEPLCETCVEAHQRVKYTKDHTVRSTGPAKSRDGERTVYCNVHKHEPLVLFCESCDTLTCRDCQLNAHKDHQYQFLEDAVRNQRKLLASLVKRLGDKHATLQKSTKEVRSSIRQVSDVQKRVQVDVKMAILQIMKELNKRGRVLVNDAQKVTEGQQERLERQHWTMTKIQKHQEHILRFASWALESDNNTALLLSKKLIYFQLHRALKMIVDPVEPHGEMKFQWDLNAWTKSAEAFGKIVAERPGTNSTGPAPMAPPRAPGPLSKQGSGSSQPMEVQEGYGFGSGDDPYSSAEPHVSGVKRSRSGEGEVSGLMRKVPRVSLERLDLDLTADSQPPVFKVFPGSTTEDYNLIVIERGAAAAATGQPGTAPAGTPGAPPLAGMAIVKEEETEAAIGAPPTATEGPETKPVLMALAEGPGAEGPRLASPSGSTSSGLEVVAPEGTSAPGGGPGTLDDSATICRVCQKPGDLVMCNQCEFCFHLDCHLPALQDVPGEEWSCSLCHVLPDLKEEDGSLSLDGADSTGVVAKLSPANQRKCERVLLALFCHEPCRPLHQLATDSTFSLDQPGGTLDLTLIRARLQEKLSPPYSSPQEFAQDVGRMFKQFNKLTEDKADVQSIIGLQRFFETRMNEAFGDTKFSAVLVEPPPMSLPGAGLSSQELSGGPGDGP

T1: Flag-MLKL-Q356A (human) (UniProt Q8NB16)
T1 sequence: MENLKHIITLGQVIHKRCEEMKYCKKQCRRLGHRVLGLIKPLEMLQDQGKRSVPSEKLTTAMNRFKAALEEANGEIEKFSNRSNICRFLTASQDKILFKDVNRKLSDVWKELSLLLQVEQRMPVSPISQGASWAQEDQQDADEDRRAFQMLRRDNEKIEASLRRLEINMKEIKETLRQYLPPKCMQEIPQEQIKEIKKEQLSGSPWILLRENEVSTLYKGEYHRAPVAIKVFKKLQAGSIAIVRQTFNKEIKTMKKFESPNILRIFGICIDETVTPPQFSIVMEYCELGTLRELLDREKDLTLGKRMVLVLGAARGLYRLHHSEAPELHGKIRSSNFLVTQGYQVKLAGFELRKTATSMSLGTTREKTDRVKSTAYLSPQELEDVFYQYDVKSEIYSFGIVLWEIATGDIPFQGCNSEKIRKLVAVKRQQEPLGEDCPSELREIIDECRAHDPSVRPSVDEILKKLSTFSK

T2: MLKL (endogenous, HT-29 cells) (human (endogenous in HT-29)) (UniProt Q8NB16)
T2 sequence: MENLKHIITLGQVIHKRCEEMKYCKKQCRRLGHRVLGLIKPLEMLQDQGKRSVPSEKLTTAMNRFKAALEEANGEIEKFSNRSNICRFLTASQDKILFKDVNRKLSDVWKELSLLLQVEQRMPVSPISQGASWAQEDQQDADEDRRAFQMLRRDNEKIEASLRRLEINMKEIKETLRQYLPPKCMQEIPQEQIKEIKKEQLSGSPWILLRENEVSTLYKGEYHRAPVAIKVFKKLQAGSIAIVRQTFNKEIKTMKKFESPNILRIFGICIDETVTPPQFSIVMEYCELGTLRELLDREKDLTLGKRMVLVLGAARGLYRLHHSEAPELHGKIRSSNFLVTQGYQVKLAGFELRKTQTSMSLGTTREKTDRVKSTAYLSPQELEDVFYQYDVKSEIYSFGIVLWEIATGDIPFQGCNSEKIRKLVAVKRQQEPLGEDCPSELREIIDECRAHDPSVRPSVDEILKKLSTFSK


Assays:
Flag-MLKL-Q356A (human) = target: T1, Flag-MLKL-Q356A (human); experiment: co-IP; 293T cells with tet-inducible Flag-MLKL Q356A, after doxycycline induction, with or without NSA; lysates immunoprecipitated with anti-Flag resin, western blot
[1] = target: T2, MLKL (endogenous, HT-29 cells) (human (endogenous in HT-29)); experiment: co-IP; HT-29 cells, control or treated with TSZ or TSZ + Nec-1s for 4 h; lysates immunoprecipitated with MLKL antibody, western blot; lysis buffer 50 mM Tris-HCl pH 7.2, 150 mM NaCl, 0.5% NP40
HA-TRIM28 (human) = HA-TRIM28 (human) (UniProt Q13263); experiment: co-IP; 293T cells transfected with GFP-MLKL and HA-TRIM28 for 24 h; lysates immunoprecipitated with anti-HA resin, western blot

Row | Molecule | binding (Flag-MLKL-Q356A (human)) | binding [1] | other results
1 | TRIM28 (endogenous, 293T cells) (from UniProt Q13263 1-835) | binds |  | 
2 | TRIM28 (endogenous, HT-29 cells) (from UniProt Q13263 1-835) |  | binds | 
3 | p-S473 TRIM28 (endogenous, 293T cells) (from UniProt Q13263 1-835) | binds |  | 
4 | p-S473 TRIM28 (endogenous, HT-29 cells) (from UniProt Q13263 1-835) |  | binds | 
5 | GFP-MLKL (protein, UniProt Q8NB16 1-471) MENLKHIITLGQVIHKRCEEMKYCKKQCRRLGHRVLGLIKPLEMLQDQGKRSVPSEKLTTAMNRFKAALEEANGEIEKFSNRSNICRFLTASQDKILFKDVNRKLSDVWKELSLLLQVEQRMPVSPISQGASWAQEDQQDADEDRRAFQMLRRDNEKIEASLRRLEINMKEIKETLRQYLPPKCMQEIPQEQIKEIKKEQLSGSPWILLRENEVSTLYKGEYHRAPVAIKVFKKLQAGSIAIVRQTFNKEIKTMKKFESPNILRIFGICIDETVTPPQFSIVMEYCELGTLRELLDREKDLTLGKRMVLVLGAARGLYRLHHSEAPELHGKIRSSNFLVTQGYQVKLAGFELRKTQTSMSLGTTREKTDRVKSTAYLSPQELEDVFYQYDVKSEIYSFGIVLWEIATGDIPFQGCNSEKIRKLVAVKRQQEPLGEDCPSELREIIDECRAHDPSVRPSVDEILKKLSTFSK |  |  | binding (HA-TRIM28 (human)): binds
